Data published in article PMC9355941.

Sequences of proteins named here, by UniProt entry; tags and fusion partners are left off.
UniProt O94972: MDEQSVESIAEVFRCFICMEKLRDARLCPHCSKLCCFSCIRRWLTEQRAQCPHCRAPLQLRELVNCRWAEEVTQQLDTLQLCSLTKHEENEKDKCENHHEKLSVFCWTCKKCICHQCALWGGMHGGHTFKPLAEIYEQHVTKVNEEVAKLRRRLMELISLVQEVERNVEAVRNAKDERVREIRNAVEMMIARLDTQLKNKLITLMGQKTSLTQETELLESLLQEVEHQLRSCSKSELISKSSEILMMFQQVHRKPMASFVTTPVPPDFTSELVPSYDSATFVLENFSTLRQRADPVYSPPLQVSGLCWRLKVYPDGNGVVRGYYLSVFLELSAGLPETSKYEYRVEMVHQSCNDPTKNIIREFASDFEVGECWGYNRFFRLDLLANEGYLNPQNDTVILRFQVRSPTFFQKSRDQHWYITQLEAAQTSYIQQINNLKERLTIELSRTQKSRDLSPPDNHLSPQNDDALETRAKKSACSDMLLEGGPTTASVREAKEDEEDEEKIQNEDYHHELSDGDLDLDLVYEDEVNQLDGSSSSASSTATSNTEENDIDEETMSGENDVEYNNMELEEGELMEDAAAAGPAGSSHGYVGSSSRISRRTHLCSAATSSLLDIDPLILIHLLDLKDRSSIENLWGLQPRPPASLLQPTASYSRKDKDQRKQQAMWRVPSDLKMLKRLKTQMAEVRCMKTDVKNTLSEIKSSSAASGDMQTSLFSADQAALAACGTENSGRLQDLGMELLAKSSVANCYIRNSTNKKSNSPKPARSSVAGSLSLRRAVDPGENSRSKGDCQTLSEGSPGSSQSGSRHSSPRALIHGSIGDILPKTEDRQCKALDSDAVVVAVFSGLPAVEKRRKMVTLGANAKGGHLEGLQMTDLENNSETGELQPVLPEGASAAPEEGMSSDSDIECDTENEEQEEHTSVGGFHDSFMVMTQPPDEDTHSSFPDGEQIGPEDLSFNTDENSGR

Molecular target: T1, PDZ-binding kinase (PBK), endogenous (human (endogenous in UWB1.289 and SKOV3)) (UniProt Q96KB5)
T1 sequence: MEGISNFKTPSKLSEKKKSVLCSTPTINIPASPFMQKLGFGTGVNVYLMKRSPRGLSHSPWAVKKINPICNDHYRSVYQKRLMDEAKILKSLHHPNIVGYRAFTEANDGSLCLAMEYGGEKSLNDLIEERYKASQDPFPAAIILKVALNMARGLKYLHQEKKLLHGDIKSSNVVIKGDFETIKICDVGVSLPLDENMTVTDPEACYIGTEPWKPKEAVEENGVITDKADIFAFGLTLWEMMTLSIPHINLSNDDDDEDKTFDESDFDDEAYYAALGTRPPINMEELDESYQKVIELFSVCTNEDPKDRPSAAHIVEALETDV
Assay: affinity purification with mass spectrometry; UWB1.289 cells with or without olaparib (2 µM, 24 h); lysate immunoprecipitated with anti-PBK antibody or rabbit IgG; SDS-PAGE, LC-MS/MS

binding: binds
Substance: tripartite motif containing 37 (TRIM37), endogenous (from UniProt O94972 1-964)

These are yes or no findings as the source states them, for the method shown. Binding seen in cells or lysates may run through a third protein. Here binding means that the protein was enriched with, or labelled near, the bait; the list need not be complete.
